We go through 1 substance from paper PMC4324493 (BioMed Research International, 2015).

A short description of the data set: general procedure: Fmoc solid-phase peptide synthesis; rink amide-AM resin; HBTU/DIPEA; DIC/Oxyma pure for DOTA conjugation. The settings on record: whole synthesis, scale 0.1 mmol.

As for PLPVLTI-GG, the “final purity (method not given)” value is above 99%.
